Test results taken from PubChem BioAssay AID2685 (National Center for Advancing Translational Sciences (NCATS), 2010).
Some of the results follow. These are further read-outs of the screen, such as a control signal, another cell line or another target. No call is given for them. Compounds called inactive in the main read-out are mostly missing here. The note in brackets gives the kind of curve behind each potency; many fits are weak. Where a SMILES comes first, the peptide text is derived from it. [ ]: non-standard residue; d: D form. pGlu = O=C1CC[CH](C(=O)O)N1

Assay: qHTS Assay for Lipid Storage Modulators in Drosophila S3 Cells;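 as to cell number change: cells counted by Cell Tracker Red CMTPX staining in the red channel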
Details: BODIPY lipid droplet fluorescence, 18-24 h; for cell number change: measured here: cell count max response, cells fed with added oleic acid
Method in brief: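 Drosophila S3 cells got compounds at several concentrations plus oleic acid (400 uM solution). Laser-scanning cytometry with 488 nm excitation read lipid droplets at 500-530 nm and cells at 575-640 nm. Percent activity was relative to 20 uM Triacsin C.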

[1] = measured here: cell number channel AC50, cells fed with added oleic acid
[2] = measured here: lipid fluorescence (Fed channel) AC50, cells fed with added oleic acid

SMILES | AC50 [1] | cell number change | AC50 [2]
COc1ccc(N2CCN(C(=O)c3ccc(CS(=O)(=O)c4ccc(OC)cc4)o3)CC2)cc1 | 2.06 µM [rising, partial curve] | – | –
CC(C)CC(NC(=O)C(CO)NC(=O)C1CCC(=O)N1)C(N)=O (stereo not drawn) ([pGlu]-Ser-Leu-NH2; configuration not given here) | 0.461 µM [falling, full curve] | -39.2% | –
CCOC(=O)/C=C1\SCC(=O)N1Cc1ccc(Br)cc1 | – | -26.8% | 7.31 µM [falling, partial curve]
CC(C)(C)c1ccc(/C=N/Nc2nncn2N)cc1 | – | -13.3% | –
CCC(CC)c1nnc(NC(=O)c2ccc(S(=O)(=O)N3CCc4ccccc4C3)cc2)s1 | 20.6 µM [rising, partial curve, poor fit] | 131% | 0.366 µM [rising, partial curve, poor fit]
CCCCn1c(SCC(=O)c2ccccc2)nc2ccsc2c1=O | 6.51 µM [rising, partial curve] | 35.1% | 16.4 µM [rising, single point]
Cc1ccc(C(=O)NC(C)c2ccc(-n3ccnc3)cc2)cc1 (stereo unspecified) | – | 15.8% | 29.1 µM [rising, single point]
COc1cccc(CNc2ccc([N+](=O)[O-])cc2Cl)c1O | 6.51 µM [falling, single point] | -14% | 6.51 µM [falling, single point]
CCCCN(C(=O)c1cccc(N2C(=O)c3ccccc3C2=O)c1)c1c(N)n(CC(C)C)c(=O)[nH]c1=O | – | 9.35% | 6.51 µM [rising, single point]
Cc1ccc(Oc2ccccc2/C=C2\SC(=O)N(C)C2=O)cc1 | – | -9.82% | 1.46 µM [falling, full curve, poor fit]
CCCCOC(=O)Nc1ccc(C(C)C)cc1 | 14.6 µM [falling, partial curve, poor fit] | -34.3% | 16.4 µM [falling, partial curve, poor fit]
COc1ccc(C)cc1N1CC(C(=O)OCc2nc(N)nc(Nc3ccccc3C)n2)CC1=O (stereo unspecified) | – | 18.1% | –
Cc1ccc(N(C)S(=O)(=O)c2cc3c(cc2C)NC(=O)CO3)cc1 | – | 3.46% | 18.4 µM [falling, single point]
Cc1c(N=Cc2ccc(O)c(Br)c2)cccc1[N+](=O)[O-] | – | 23.1% | 3.66 µM [rising, full curve, poor fit]
COc1ccc(S(=O)(=O)N2CCOC23CCN(S(C)(=O)=O)CC3)cc1 | – | 24.5% | 18.4 µM [rising, single point]

Full records as entered above. Order of values: AC50 [1]	cell number change	AC50 [2]
CCCCn1c(SCC(=O)c2ccccc2)nc2ccsc2c1=O as listed: 6.51 µM [rising, partial curve]	35.1%	16.4 µM [rising, single point]
CCCCOC(=O)Nc1ccc(C(C)C)cc1 as listed: 14.6 µM [falling, partial curve, poor fit]	-34.3%	16.4 µM [falling, partial curve, poor fit]
